No constants are given. Whether binding was seen depends on the method and setting. Binding seen in cells or lysates may run through a third protein. These calls come from enrichment with a bait or labelling near it, and not all partners need be listed. Sequences can lack the tags named with a protein.

By UniProt entry, the sequences of proteins in these tests, tags left out.
UniProt P67809: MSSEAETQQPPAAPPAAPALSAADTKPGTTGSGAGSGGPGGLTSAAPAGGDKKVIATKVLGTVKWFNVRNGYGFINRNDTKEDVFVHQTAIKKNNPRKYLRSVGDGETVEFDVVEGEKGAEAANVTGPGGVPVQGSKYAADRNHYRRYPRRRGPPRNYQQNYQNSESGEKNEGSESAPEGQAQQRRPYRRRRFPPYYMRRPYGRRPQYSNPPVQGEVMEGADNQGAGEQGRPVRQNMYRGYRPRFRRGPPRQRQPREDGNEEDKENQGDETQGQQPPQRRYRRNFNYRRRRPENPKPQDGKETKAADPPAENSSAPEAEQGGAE

This assay addresses T1, EPS8L2 with a C-terminal Flag tag (overexpressed in HCT116 and SW480 cells) (human) (UniProt Q9H6S3).
T1 sequence: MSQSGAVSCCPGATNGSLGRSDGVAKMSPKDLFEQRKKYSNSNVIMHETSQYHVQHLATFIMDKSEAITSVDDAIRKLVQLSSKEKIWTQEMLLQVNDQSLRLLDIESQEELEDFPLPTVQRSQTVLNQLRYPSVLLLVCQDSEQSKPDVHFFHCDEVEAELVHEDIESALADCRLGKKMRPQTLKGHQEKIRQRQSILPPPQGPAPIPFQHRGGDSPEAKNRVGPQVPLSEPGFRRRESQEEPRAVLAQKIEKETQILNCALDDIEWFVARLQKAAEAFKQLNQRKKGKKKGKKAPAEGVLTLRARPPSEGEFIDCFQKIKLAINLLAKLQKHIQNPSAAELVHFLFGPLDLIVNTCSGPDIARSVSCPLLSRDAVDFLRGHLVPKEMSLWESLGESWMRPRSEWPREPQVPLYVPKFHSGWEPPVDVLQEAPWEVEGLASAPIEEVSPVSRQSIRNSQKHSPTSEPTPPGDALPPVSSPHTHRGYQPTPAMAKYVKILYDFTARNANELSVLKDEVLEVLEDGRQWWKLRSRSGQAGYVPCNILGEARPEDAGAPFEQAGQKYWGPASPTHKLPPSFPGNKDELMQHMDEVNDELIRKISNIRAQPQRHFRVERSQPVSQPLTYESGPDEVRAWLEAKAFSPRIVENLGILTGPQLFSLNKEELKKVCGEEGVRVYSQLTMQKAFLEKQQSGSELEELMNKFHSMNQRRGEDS
Nature of the assay: affinity purification with mass spectrometry; IgG or Flag antibody added to HCT116 and SW480 cell lysates (RIPA buffer), Protein A/G agarose beads; differential silver-stained band between 40 and 55 kDa cut out for MS.

As to “YBX1 (endogenous, HCT116 and SW480 cells) (from UniProt P67809 1-324)”, the binding entry is on record as “binds”.

The values above are taken from PMC12335500.
